Among the data in the supplement of paper PMC8047044 are neurite formation score values, retold here.

Structures can show the parent of a compound that is named as a salt. The list shows a part of the results. Most values come without repeats; read them as rough.

The assay has as its system Neuro-2a. Put plainly: neurite formation score, plate-normalized to DMSO control mean 5.04 (score (0-8 scale)); higher = more or longer neurites. The settings on record: 10 µM.
On to `CCCCCCCCc1ccc(CCC(N)(CO)CO)cc1` [Fingolimod (FTY720)], for which the neurite formation score was 1.43. Consider `Cn1cc(C2=C(c3cn(CCCSC(=N)N)c4ccccc34)C(=O)NC2=O)c2ccccc21` [Ro 31-8220 Mesylate], for which the neurite formation score turned out to be 0.189. Take `CC(C)(C)Cn1c(N)nc2ccc(-c3[nH]c(C(C)(C)C)nc3-c3ccc(F)cc3)nc21`: the neurite formation score was determined as 4.52. `Cc1cn(-c2cc(NC(=O)c3ccc(C)c(Nc4nccc(-c5cccnc5)n4)c3)cc(C(F)(F)F)c2)cn1` [Nilotinib(AMN-107)] came in with a neurite formation score of 4.19.

Turning to `CCN1CCN(c2ccc(Nc3cc(N(C)C(=O)Nc4c(Cl)c(OC)cc(OC)c4Cl)ncn3)cc2)CC1`, the neurite formation score stood at 4.42. For the compound `O=C1NC(=O)C(c2cnc3ccccn23)=C1c1cn2c3c(cc(F)cc13)CN(C(=O)N1CCCCC1)CC2`, the neurite formation score stood at 1.09.

Consider `NC(=O)c1cnc(N[C@@H]2CCCC[C@@H]2N)nc1Nc1cccc(-n2nccn2)c1`, for which the neurite formation score stood at 0.41. Compound `C[C@H](NC(=O)/C(C#N)=C/c1cccc(Br)n1)c1ccccc1` registered a neurite formation score of 0.41.

Compound `CN(C[C@@H]1COCCO1)S(=O)(=O)Nc1ccc2ccc3ncc(-c4cnn(C)c4)cc3c(=O)c2c1` displayed a neurite formation score of 3.76.

Compound `COc1cc(F)c(F)c(Nc2ccc(I)cc2F)c1NS(=O)(=O)C1(C[C@H](O)CO)CC1` [Refametinib] had a neurite formation score of 2.76. Then `CNC(=O)c1cc(Oc2ccc(NC(=O)Nc3ccc(Cl)c(C(F)(F)F)c3)c(F)c2)ccn1` [Regorafenib monohydrate], with 3.08.

Turning to `CC(C)(O)CC(=O)NCCn1ccc2ncnc(Nc3ccc(Oc4cccc(C(F)(F)F)c4)c(Cl)c3)c21`, the neurite formation score came out at 4.42. `NC(=O)Nc1sc(-c2ccc(F)cc2)cc1C(N)=O` showed a neurite formation score of 2.41. `Oc1cc(O)cc(/C=C/c2ccc(O)c(O)c2)c1` [Piceatannol] returned a neurite formation score of 5.19.

`Cc1cccc(CC(=O)N2CCc3c2ccc(-c2cn(C)c4ncnc(N)c24)c3F)n1`: the neurite formation score was 3.86.

In the case of `Clc1ccc(Nc2nnc(Cc3ccncc3)c3ccccc23)cc1` [Vatalanib (PTK787) 2HCl], the neurite formation score was 4.54.

`Cc1ccc(-c2csc3ncnc(SCCC(=O)O)c23)cc1`: the neurite formation score worked out at 3.41. With `Cc1ccc(NC(=O)c2cccc(C(C)(C)C#N)c2)cc1Nc1ccc2ncn(C)c(=O)c2c1`, the neurite formation score was determined as 1.85. `C=CC(=O)Nc1cccc(Oc2nc(Nc3ccc(N4CCN(C)CC4)cc3)ncc2Cl)c1` came in with a neurite formation score of 1.09. Regarding `CCn1c(N)c(C(=O)NC)c(=O)c2ccc(C#CC(C)(O)COC)nc21` (centres undefined), the neurite formation score was found to be 5.19. For the compound `CN(C)C1CCN(C(=O)c2ccc(NC(=O)Nc3ccc(-c4nc(N5CCOCC5)nc(N5CCOCC5)n4)cc3)cc2)CC1`, the neurite formation score is 3.76. Then `Cc1ncc(CCCN(C)C)cc1Nc1ncc2c(n1)-c1ccc(C(F)(F)F)cc1NC(=S)C2`, with 5.43; and `CNC(=O)c1ccccc1Nc1cc(Nc2ccc(N3CCOCC3)cc2OC)ncc1C(F)(F)F`, with 2.74. Compound `C#Cc1cccc(Nc2ncnc3cc4c(cc23)OCCOCCOCCO4)c1` [Icotinib] returned a neurite formation score of 5.42.

`Cc1cc2c(F)c(Oc3ncnn4cc(OC[C@@H](C)O)c(C)c34)ccc2[nH]1` displayed a neurite formation score of 4.21. Regarding `COc1cc2ncc(-c3ccccc3)nc2cc1OC` [Tyrphostin AG 1296], the neurite formation score was 4.88. The compound `Cc1csc(-c2nnc(Nc3ccc(Oc4ncccc4-c4ccnc(N)n4)cc3)c3ccccc23)c1` gave a neurite formation score of 1.41. Regarding `O=C(c1ccc(Nc2nccc(-c3cc4ccccc4s3)n2)cc1)N1CCC(N2CCCC2)CC1` [IKK-16 (IKK Inhibitor VII)], the neurite formation score was found to be 0.855. Take `COc1ccc(Cl)cc1NC(=O)Nc1cc(C)nc2ccccc12`: the neurite formation score was determined as 1.54. Then `Cn1cnc(-c2cc3nccc(Oc4ccc(NC(=S)NC(=O)Cc5ccccc5)cc4F)c3s2)c1`, with 1.08; and `Nc1nccc(-c2c(-c3ccc(F)cc3)ncn2C2CCCCC2)n1`, with 3.41. `NC(=S)N/N=C/c1ncccc1N` [Triapine] had a neurite formation score of 4.52. On to `Cc1cc(C)nc(NS(=O)(=O)c2ccc(NC(=S)NC(=O)COc3ccc(Br)cc3Cl)cc2)n1`, for which the neurite formation score was found to be 3.85. On to `Cc1cc(NC(=O)c2cccc(NC(=O)/C=C/CN(C)C)c2)ccc1Nc1nccc(-c2cccnc2)n1`, for which the neurite formation score came to 3.41. In the case of `NC(=O)c1ncn([C@@H]2O[C@H](CO)[C@@H](O)[C@H]2O)c1N`, the neurite formation score turned out to be 4.19.

`COc1cc2ncnc(Nc3ccc(F)c(Cl)c3)c2cc1OCCCN1CCOCC1` [Gefitinib (ZD1839)] had a neurite formation score of 4.85. `COc1nccc(-c2c(-c3ccc(F)cc3)ncn2C2CCC(O)CC2)n1` (centres undefined) returned a neurite formation score of 4.74. For the compound `CN1CCN(c2ccc3nc(-c4c(N)c5c(F)cccc5[nH]c4=O)[nH]c3c2)CC1` [Dovitinib (TKI-258, CHIR-258)], the neurite formation score came out at 1.19. Take `O=C1NCCCc2c1oc1ccc(O)cc21`: the neurite formation score amounted to 5.43.
